No constants are given. Whether binding was seen depends on the method and setting. Binding seen in cells or lysates may run through a third protein. Some results given as binding are weak or reduced against the parent protein; the word gives no strength.
Legend:
[1] = biological target: laminin-8 (α4/β1/γ1) (human (endogenous in the coculture of bone marrow MSCs of healthy donors with ARP-1 or RPMI8226)) (UniProt Q16363+P07942+P11047); assay: co-IP; lysates of ARP-1 or RPMI8226 myeloma cells cocultured with MSCs; agarose-immobilized antibody against integrin α6, laminin α4 or EGFR, 4°C overnight, six washes; Western blot; IgG as control
[2] = biological target: epidermal growth factor receptor (human (endogenous in the coculture of bone marrow MSCs of healthy donors with ARP-1 or RPMI8226)) (UniProt P00533); assay: as above

Amino acid sequences for entries named in this document (tags omitted). A change or cut given only in a name is not applied to a line headed by its entry.
UniProt Q16363: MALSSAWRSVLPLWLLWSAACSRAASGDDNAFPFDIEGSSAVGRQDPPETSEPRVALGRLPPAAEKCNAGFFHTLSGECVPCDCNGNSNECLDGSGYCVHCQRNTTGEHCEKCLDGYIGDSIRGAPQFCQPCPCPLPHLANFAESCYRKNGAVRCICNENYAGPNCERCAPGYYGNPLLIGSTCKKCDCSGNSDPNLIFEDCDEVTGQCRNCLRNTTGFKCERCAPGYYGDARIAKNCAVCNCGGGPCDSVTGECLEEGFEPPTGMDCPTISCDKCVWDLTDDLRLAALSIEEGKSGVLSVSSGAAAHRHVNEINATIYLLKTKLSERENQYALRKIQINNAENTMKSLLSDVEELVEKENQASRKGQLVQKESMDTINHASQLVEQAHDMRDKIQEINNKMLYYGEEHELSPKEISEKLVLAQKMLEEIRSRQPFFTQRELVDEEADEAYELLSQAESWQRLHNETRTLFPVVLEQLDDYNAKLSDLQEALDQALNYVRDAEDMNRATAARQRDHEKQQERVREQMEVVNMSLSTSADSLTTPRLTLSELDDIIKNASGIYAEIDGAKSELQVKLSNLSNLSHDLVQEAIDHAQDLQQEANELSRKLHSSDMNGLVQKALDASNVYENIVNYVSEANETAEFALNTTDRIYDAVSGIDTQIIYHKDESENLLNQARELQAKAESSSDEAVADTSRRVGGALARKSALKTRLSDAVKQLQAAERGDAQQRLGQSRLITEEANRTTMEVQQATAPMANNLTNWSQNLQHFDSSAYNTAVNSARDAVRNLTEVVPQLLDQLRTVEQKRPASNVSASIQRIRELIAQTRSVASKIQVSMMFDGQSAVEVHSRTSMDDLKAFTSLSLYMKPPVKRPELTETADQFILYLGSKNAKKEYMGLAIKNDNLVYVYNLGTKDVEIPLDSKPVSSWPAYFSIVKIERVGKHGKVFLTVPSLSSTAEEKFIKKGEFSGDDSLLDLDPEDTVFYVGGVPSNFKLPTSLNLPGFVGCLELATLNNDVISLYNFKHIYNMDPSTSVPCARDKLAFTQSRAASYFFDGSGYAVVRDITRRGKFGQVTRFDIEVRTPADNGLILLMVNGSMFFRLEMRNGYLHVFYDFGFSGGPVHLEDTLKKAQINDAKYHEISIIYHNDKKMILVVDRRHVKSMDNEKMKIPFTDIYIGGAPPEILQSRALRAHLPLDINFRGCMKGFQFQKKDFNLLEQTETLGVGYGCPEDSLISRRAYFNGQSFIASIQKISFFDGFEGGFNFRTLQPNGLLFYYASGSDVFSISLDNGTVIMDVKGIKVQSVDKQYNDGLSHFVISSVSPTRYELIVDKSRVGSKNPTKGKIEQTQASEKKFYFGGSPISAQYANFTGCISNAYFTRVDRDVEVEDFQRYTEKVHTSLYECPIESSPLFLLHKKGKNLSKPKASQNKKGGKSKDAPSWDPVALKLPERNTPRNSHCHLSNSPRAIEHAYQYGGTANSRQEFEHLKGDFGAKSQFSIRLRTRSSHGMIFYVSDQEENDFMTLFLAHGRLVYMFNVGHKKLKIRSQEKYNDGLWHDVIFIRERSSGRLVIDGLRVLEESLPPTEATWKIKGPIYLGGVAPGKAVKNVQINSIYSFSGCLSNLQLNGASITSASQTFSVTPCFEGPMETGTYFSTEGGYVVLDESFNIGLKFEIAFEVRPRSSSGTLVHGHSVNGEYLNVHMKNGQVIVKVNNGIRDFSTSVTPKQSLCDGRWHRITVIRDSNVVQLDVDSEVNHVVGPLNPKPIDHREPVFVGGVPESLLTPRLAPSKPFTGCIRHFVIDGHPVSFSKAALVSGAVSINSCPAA
UniProt P07942: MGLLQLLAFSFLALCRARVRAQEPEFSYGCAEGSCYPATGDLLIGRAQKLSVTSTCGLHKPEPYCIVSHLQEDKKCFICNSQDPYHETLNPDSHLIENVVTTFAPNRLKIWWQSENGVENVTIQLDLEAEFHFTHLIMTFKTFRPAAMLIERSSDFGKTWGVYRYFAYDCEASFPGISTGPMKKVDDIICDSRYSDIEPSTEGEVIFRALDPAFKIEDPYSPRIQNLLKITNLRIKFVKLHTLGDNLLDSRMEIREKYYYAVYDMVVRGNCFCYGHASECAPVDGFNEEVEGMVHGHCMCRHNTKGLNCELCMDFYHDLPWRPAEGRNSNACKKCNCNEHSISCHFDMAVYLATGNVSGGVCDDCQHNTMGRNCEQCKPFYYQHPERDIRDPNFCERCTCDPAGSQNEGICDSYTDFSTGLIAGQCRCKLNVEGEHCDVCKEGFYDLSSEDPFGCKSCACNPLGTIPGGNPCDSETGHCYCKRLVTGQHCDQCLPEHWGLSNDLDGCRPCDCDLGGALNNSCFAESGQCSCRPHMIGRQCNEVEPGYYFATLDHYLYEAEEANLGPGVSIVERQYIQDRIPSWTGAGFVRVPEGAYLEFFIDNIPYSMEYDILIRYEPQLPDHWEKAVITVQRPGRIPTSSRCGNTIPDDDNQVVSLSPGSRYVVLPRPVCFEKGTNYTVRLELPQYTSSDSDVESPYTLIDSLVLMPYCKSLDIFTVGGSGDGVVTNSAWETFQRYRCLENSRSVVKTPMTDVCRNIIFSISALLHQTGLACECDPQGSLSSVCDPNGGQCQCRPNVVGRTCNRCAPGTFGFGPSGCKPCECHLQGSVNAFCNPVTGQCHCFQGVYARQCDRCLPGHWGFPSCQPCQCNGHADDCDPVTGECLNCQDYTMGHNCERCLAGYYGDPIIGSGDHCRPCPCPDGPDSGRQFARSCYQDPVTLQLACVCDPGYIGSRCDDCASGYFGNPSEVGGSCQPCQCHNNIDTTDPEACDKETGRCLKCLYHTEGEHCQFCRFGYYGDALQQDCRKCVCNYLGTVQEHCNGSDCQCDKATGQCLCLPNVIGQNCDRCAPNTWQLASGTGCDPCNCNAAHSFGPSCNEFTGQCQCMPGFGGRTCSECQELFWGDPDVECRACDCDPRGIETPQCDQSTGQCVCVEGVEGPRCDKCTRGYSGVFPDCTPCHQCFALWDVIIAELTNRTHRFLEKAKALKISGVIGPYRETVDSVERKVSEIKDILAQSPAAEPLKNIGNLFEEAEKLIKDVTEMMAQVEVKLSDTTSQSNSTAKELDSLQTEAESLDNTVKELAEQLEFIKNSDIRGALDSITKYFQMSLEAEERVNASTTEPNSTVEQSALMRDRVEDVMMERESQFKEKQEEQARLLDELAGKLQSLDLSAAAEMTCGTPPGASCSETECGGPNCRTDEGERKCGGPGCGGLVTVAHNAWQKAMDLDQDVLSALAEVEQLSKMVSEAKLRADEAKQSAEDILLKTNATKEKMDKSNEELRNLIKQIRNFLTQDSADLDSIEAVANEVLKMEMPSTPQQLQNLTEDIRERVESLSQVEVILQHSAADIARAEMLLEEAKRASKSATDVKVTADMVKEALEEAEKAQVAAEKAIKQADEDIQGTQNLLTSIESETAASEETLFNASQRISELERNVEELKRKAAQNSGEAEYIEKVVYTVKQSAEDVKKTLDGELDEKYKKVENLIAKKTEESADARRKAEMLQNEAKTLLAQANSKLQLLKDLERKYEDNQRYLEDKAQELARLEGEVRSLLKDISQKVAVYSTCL
UniProt P11047: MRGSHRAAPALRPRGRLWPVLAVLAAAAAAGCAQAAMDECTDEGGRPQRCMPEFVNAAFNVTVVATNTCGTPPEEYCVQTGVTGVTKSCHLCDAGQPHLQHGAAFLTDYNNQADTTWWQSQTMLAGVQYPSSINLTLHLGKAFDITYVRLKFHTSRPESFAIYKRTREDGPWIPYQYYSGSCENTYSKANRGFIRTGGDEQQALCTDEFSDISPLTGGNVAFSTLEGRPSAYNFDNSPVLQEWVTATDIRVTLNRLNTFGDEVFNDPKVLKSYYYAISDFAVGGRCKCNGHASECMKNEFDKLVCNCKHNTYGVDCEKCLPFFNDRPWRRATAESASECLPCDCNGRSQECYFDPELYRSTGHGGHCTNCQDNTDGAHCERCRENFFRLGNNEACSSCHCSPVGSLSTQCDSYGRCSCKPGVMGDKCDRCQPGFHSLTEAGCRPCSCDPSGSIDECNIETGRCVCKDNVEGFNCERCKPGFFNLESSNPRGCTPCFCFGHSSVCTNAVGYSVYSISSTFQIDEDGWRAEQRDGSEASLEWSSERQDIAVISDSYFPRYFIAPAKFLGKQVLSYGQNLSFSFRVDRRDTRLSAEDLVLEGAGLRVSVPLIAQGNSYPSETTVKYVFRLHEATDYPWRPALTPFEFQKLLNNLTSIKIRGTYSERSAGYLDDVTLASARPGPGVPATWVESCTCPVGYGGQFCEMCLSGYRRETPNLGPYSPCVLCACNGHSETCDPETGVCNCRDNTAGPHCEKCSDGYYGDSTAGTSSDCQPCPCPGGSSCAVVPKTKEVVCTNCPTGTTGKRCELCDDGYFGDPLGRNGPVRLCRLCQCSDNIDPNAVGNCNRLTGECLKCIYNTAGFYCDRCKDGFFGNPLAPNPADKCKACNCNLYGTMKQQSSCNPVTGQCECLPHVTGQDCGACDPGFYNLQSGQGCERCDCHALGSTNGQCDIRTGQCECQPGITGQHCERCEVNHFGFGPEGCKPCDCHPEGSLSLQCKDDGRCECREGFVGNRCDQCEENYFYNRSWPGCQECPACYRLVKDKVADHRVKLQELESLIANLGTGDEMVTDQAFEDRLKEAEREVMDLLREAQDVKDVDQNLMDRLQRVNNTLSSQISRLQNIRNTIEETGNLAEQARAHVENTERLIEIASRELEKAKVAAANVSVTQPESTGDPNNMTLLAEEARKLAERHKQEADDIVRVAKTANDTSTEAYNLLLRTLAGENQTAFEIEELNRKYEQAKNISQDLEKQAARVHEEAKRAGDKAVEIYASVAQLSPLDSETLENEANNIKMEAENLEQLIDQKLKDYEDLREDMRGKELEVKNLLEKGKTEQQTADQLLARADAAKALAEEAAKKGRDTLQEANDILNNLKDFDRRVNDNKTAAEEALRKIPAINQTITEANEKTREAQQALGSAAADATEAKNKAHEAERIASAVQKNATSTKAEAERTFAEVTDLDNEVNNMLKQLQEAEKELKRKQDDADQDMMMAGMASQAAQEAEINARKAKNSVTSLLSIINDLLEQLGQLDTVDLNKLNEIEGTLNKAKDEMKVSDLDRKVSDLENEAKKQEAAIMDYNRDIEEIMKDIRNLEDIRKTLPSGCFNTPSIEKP

Substance | binding [1] | binding [2]
epidermal growth factor receptor (from UniProt P00533 25-1210) | binds | –
laminin-8 (α4/β1/γ1) (from UniProt Q16363 25-1823; P07942 22-1786; P11047 34-1609) (complex) | – | binds
